# Key:
# [1] = FET characteristics of organic transistor element of Example 2 (semiconductor active layer formed using compound alone, bottom gate/bottom contact); details: source-drain −80 V; for Carrier mobility: compound alone cast from toluene, bottom gate/bottom contact, gate 20 V to −100 V, normal pressure/nitrogen; for Threshold voltage shift after repeated driving: compound alone, driven 100 times, gate +20 V to −100 V
# [2] = FET characteristics of organic transistor element of Example 3 (semiconductor active layer formed using compound and binder PαMS together); details: for Carrier mobility: compound 1 mg with 1 mg PαMS binder, cast from toluene, bottom gate/bottom contact; for Threshold voltage shift after repeated driving: compound with PαMS binder, driven 100 times
# [3] = FET characteristics of organic transistor element of Example 4 (bottom gate/top contact, octyltrichlorosilane-treated SiO2); details: for Carrier mobility: W=5 mm, L=80 μm, octyltrichlorosilane-treated SiO2 370 nm; for Threshold voltage shift after repeated driving: driven 100 times
Structure (SMILES),Carrier mobility [1],Threshold voltage shift after repeated driving [1],Carrier mobility [2],Threshold voltage shift after repeated driving [2],Carrier mobility [3],Threshold voltage shift after repeated driving [3]
CCCCCCCCc1cc2ccc3c(sc4c5ccc6cc(CCCCCCCC)sc6c5sc34)c2s1 [Compound 1],0.49 cm^2/Vs,A (|Vafter−Vbefore|≦5 V),0.63 cm^2/Vs,A (|Vafter−Vbefore|≦5 V),0.64 cm^2/Vs,A (|Vafter−Vbefore|≦5 V)
CCCCCCCCc1cc2c(ccc3c2sc2c4ccc5sc(CCCCCCCC)cc5c4sc32)s1 [Compound 2],0.32 cm^2/Vs,A (|Vafter−Vbefore|≦5 V),0.42 cm^2/Vs,A (|Vafter−Vbefore|≦5 V),0.44 cm^2/Vs,A (|Vafter−Vbefore|≦5 V)
CCCCCCCCCCCCc1cc2ccc3c(sc4c5ccc6cc(CCCCCCCCCCCC)sc6c5sc34)c2s1 [Compound 3],0.25 cm^2/Vs,A (|Vafter−Vbefore|≦5 V),0.32 cm^2/Vs,A (|Vafter−Vbefore|≦5 V),,
CCCCCCCCCCCCc1cc2c(ccc3c2sc2c4ccc5sc(CCCCCCCCCCCC)cc5c4sc32)s1 [Compound 4],0.16 cm^2/Vs,A (|Vafter−Vbefore|≦5 V),0.25 cm^2/Vs,A (|Vafter−Vbefore|≦5 V),,
CC(C)CCCC(C)CCc1cc2ccc3c(sc4c5ccc6cc(CCC(C)CCCC(C)C)sc6c5sc34)c2s1 (stereo not shown) [Compound 5],7.9 × 10^−2 cm^2/Vs,A (|Vafter−Vbefore|≦5 V),8.6 × 10^−2 cm^2/Vs,A (|Vafter−Vbefore|≦5 V),9.1 × 10^−2 cm^2/Vs,A (|Vafter−Vbefore|≦5 V)
CCCCCCCCC#Cc1cc2ccc3c(sc4c5ccc6cc(C#CCCCCCCCC)sc6c5sc34)c2s1 [Compound 29],1.5 × 10^−2 cm^2/Vs,A (|Vafter−Vbefore|≦5 V),2.5 × 10^−2 cm^2/Vs,A (|Vafter−Vbefore|≦5 V),3.3 × 10^−2 cm^2/Vs,A (|Vafter−Vbefore|≦5 V)
CCCCCCCCC#Cc1cc2c(ccc3c2sc2c4ccc5sc(C#CCCCCCCCC)cc5c4sc32)s1 [Compound 30],1.5 × 10^−2 cm^2/Vs,A (|Vafter−Vbefore|≦5 V),2.0 × 10^−2 cm^2/Vs,A (|Vafter−Vbefore|≦5 V),2.4 × 10^−2 cm^2/Vs,A (|Vafter−Vbefore|≦5 V)
CCCCCCCCOc1cc2ccc3c(sc4c5ccc6cc(OCCCCCCCC)sc6c5sc34)c2s1 [Compound 37],8.7 × 10^−3 cm^2/Vs,A (|Vafter−Vbefore|≦5 V),,,,
CCCCCCCCOc1cc2c(ccc3c2sc2c4ccc5sc(OCCCCCCCC)cc5c4sc32)s1 [Compound 38],5.0 × 10^−3 cm^2/Vs,A (|Vafter−Vbefore|≦5 V),,,,
CCCCCCCCCCCCCCc1cc2ccsc2c2sc3c(sc4c5sccc5cc(CCCCCCCCCCCCCC)c43)c12 [Compound 39],4.4 × 10^−3 cm^2/Vs,A (|Vafter−Vbefore|≦5 V),,,,
CCCCCCCCCCCCCCc1cc2sccc2c2sc3c(sc4c5ccsc5cc(CCCCCCCCCCCCCC)c43)c12 [Compound 40],4.2 × 10^−3 cm^2/Vs,A (|Vafter−Vbefore|≦5 V),,,,
CCCCCCCCc1cc2ccc3c(sc4c5ccc6ccsc6c5sc34)c2s1 [Compound 43],4.0 × 10^−3 cm^2/Vs,A (|Vafter−Vbefore|≦5 V),,,,
CCCCCCCCc1cc2c(ccc3c2sc2c4ccc5sccc5c4sc32)s1 [Compound 44],3.8 × 10^−3 cm^2/Vs,A (|Vafter−Vbefore|≦5 V),,,,
"Cn1ccc2c3sc4c5ccc6c(ccn6C)c5sc4c3ccc21 [compound 1, reference compound]",4.4 × 10^−4 cm^2/Vs,C (|Vafter−Vbefore|>10V),6.3 × 10^−4 cm^2/Vs,C (|Vafter−Vbefore|>10V),4.8 × 10^−5 cm^2/Vs,C (|Vafter−Vbefore|>10V)
"CCc1cc2cc3c(cc2s1)sc1c2cc4cc(CC)sc4cc2sc31 [compound 2, reference compound]",8.4 × 10^−5 cm^2/Vs,B (5 V<|Vafter−Vbefore|≦10 V),1.0 × 10^−4 cm^2/Vs,B (5 V<|Vafter−Vbefore|≦10 V),,
"CCCC(C)n1ccc2c3sc4c5ccc6c(ccn6C(C)CCC)c5sc4c3ccc21 (stereo not shown) [compound 3, reference compound]",1.2 × 10^−6 cm^2/Vs,C (|Vafter−Vbefore|>10V),,,,
"c1cc2cc3sc4c5cc6sccc6cc5sc4c3cc2s1 [compound 4, reference compound]",4.8 × 10^−5 cm^2/Vs,B (5 V<|Vafter−Vbefore|≦10 V),,,,

# From US20160322588A1, “Organic Transistor, Compound, Organic Semiconductor Material for Non-Light-Emitting Organic Semiconductor Device, Material for Organic Transistor, Coating Solution for Non-Light-Emitting Organic Semiconductor Device, and Organic Semiconductor Film for Non-Light-Emitting Organic Semiconductor Device” (FUJIFILM Corporation, priority 2014, published 2016)
